According to the supplement of paper PMC10338343:
± gives the standard deviation. This is a selection; strong and weak results do not stand in their true shares. The uncertainty is large for many entries.

Assays:
[1] = test system: MIWI (PIWIL1) piRISC loaded with piRNA #1 (30 nt); test: pre-steady-state target cleavage rate (min^-1); higher = faster piRNA-guided slicing of the target; details: guide: piRNA #1 5'p-UGAGGUAGUAGGUUGUAUAGUAUCCAGAGG; auxiliary factor: 500 nM mouse GTSF1;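 note: 1 nM active piRISC with 0.1 nM target library at 33 °C single turnover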
Method in brief: (§1)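 In HEPES–potassium acetate buffer at 33 °C, […] transcribed, DNA-blocked target RNA library was mixed with 1 nM active affinity-purified piRISC carrying one synthetic guide, with or without 500 nM GTSF1 partner protein, for 0–8 or 0–960 min. Uncleaved targets were sequenced and normalised to depth and to weakly complementary targets; three trials were pooled and k3 was capped at 0.0001 min^-1. The pre-steady-state cleavage rate followed from a burst-and-steady-state fit.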

[2] = test system: EfPiwi piRISC loaded with piRNA #1 (26 nt); test: pre-steady-state target cleavage rate (min^-1); guide: piRNA #1 5'p-UGAGGUAGUAGGUUGUAUAGUAUCCA; MIWI and MILI are mouse PIWI proteins and EfPiwi is from a freshwater sponge; tags in brackets are library labels; higher = faster piRNA-guided slicing of the target; details: auxiliary factor: 500 nM Ephydatia muelleri Gtsf1
Method in brief: as §1

| Sequence | pre-steady-state target cleavage rate [1] | pre-steady-state target cleavage rate [2] |
| --- | --- | --- |
| GGAGACCUAUGAUAUGUUACUACUACCUCA | 0.000352 ± 0.014 | 0.00138 ± 0.0037 |
| GGAGACCUAACUAUACAACCUACAAGCUCA | 0.00159 ± 0.0094 | 0.000244 ± 0.01 |
| GGAGACCUAUGAAUACAACCUAGCUACCUCA | 0.00153 ± 0.004 | 0.000988 ± 0.0069 |
| GGAGACCUAUGUAAUCAACCUACUACCUCA | 0.00115 ± 0.005 | 0.00131 ± 0.0052 |
| GGAGACCUAUCUAAAGAACCUACUACCUCA | 0.00166 ± 0.0035 | 0.000271 ± 0.0096 |
| GGAGACCUAUGAUUACUACCUACUAGCUCA | 0.000178 ± 0.019 | 0.000582 ± 0.0051 |
| GGAGACCUAACUAUUCUACCUACUACCUCA | 0.00207 ± 0.0058 | 0.000922 ± 0.0072 |
| GGAGACCUAUGUUUUCAACCUACUACCUCA | 0.00229 ± 0.0032 | 0.00124 ± 0.007 |
| GGAGACCUAUGAUAUCAUCCUACUACCUCA | 0.000205 ± 0.0077 | 0.00115 ± 0.005 |
| GGAGACCUAUGAAUACAUCCUACUACCACA | 0.000568 ± 0.0075 | 0.000448 ± 0.014 |
| GGAGACCUAUGAUAACAACCUACGUACCUCA | 0.000276 ± 0.0081 | 0.000323 ± 0.029 |
| GGAGACCUAUGAAUACAACCUAAUACCUCA | 0.000523 ± 0.0045 | 0.000653 ± 0.0059 |
| GGAGACCUAACAAUUCAACCUACUACCUCA | 0.000243 ± 0.02 | 0.00107 ± 0.0077 |
| GGAGACCUAUGAAUACGACCUACUACCUCA | 0.000305 ± 0.011 | 0.00221 ± 0.0044 |
| GGAGACCUAUGAAUACAACCUACCUACCUCA | 0.002 ± 0.0031 | 0.000594 ± 0.012 |
| GGAGACCUAUGAUUACAACCUACUACCUCU [g2:g17:cont:t1U] | 0.00175 ± 0.0044 | 0.732 ± 0.29 |
| GGAGACCUAUGAUUACAACGUACUACCUCA | 0.000935 ± 0.0029 | 0.00195 ± 0.0045 |
| GGAGACCUAUGAAUACAACCUACUACACUCA | 0.00198 ± 0.0029 | 0.000683 ± 0.013 |
| GGAGACCUAUGAAAACAACCUACUAGCUCA | 0.00027 ± 0.0087 | 0.001 ± 0.0069 |

Some of the entries so far, as labelled records.
GGAGACCUAUGAUAUGUUACUACUACCUCA
  pre-steady-state target cleavage rate [1]: 0.000352 ± 0.014
  pre-steady-state target cleavage rate [2]: 0.00138 ± 0.0037
GGAGACCUAACUAUACAACCUACAAGCUCA
  pre-steady-state target cleavage rate [1]: 0.00159 ± 0.0094
  pre-steady-state target cleavage rate [2]: 0.000244 ± 0.01

Next part

| Sequence | pre-steady-state target cleavage rate [1] | pre-steady-state target cleavage rate [2] |
| --- | --- | --- |
| GGAGAGGAUACUAUGCAACCUACUACCUCA | 1.62 ± 0.095 | 0.242 ± 0.091 |
| GGAGACCUAUGAAUACAACCUACUACGUCA | 0.00208 ± 0.0022 | 0.00135 ± 0.0051 |
| GGAGACCUAUGAUUACAACAUACUACCUCA | 0.00152 ± 0.003 | 0.00211 ± 0.0056 |
| GGAGACCUUACAUAACAACCUACUACCUCA | 0.00221 ± 0.004 | 0.00133 ± 0.0064 |
| GGAGACCUAUGAUAACAUCCUACUAGCUCA | 0.000324 ± 0.014 | 0.00044 ± 0.0096 |
| GGAGACCUAUGAUAACAACCUACUACCUGCA | 0.00114 ± 0.0053 | 0.000452 ± 0.016 |
| GGAGACCUAUGAUAACAACCUACUUACCUCA | 0.00111 ± 0.004 | 0.000305 ± 0.018 |
| GGAGACCUAAGUAUACAACCAACUACCUCA | 0.00191 ± 0.0055 | 0.00237 ± 0.0063 |
| GGAGACCUAUGAUAUGUACCUAGUACCUCA | 0.000252 ± 0.01 | 0.000197 ± 0.0099 |
| GGAGACCUAUGUAAACAACGUACUACCUCA | 0.000253 ± 0.0094 | 0.000233 ± 0.012 |
| GGAGACCUAUGAUAACAACCUACUAACCUCA | 0.00095 ± 0.0047 | 0.000305 ± 0.015 |
| GGAGACCUAUGUAUACUUCCUACUACCUCA | 0.000996 ± 0.0042 | 0.00116 ± 0.0067 |
| GGAGACCUAUGAUUACAACCUACUACCUCC [g2:g17:cont:t1C] | 0.00144 ± 0.0047 | 0.00181 ± 0.0046 |
| GGAGACCUAUGAUAUGUACGUACAACCUCA | 0.000237 ± 0.018 | 0.000198 ± 0.014 |
| GGAGACCUAUGAUUACAACCUACUACCUGCA | 0.00119 ± 0.0066 | 0.000705 ± 0.0084 |
| GGAGACCUAUGAAUACAACCUACUACCCUCA | 0.0015 ± 0.0031 | 0.00063 ± 0.0096 |
| GGAGACCUAUGAAUACAACCUACUUCCUCA | 0.000655 ± 0.0035 | 0.000481 ± 0.004 |
| GGAGACCUAUGUAUACAACCUACAACCUGA | 0.0013 ± 0.0028 | 0.000221 ± 0.013 |
